Measured values: the supplement of paper PMC4604168 (melanoma cell lines)
This is one part of the list. Many values rest on one well or one pass, so single values are uncertain.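 Imaging used 1,536-well plates; nuclei positive for cleaved PARP by antibody were divided by total DNA-stained nuclei to yield the apoptosis fraction. Doses for screening kept most cells viable, and cell lines differ markedly in resting and induced cleaved-PARP levels.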

How the values were obtained:
Assay in all cases: cleaved PARP positive nuclei fraction relative to DMSO control; melanoma cells; higher = more apoptosis
Conditions in all cases: library dose: low library concentration; 72 h
COLO792 = tested on: COLO792
COLO800 = tested on: COLO800
COLO829 = tested on: COLO829
G361 = tested on: G361
IPC-298 = tested on: IPC-298
IST-MEL1 = tested on: IST-MEL1
LB2518-MEL = tested on: LB2518-MEL
LOXIMVI = tested on: LOXIMVI
MEL-HO = tested on: MEL-HO

Row | Structure (SMILES) | cleaved PARP positive nuclei fraction (COLO792) | cleaved PARP positive nuclei fraction (COLO800) | cleaved PARP positive nuclei fraction (COLO829) | cleaved PARP positive nuclei fraction (G361) | cleaved PARP positive nuclei fraction (IPC-298) | cleaved PARP positive nuclei fraction (IST-MEL1) | cleaved PARP positive nuclei fraction (LB2518-MEL) | cleaved PARP positive nuclei fraction (LOXIMVI) | cleaved PARP positive nuclei fraction (MEL-HO)
1 | CN(c1ncccc1CNc1nc(Nc2ccc3c(c2)CC(=O)N3)ncc1C(F)(F)F)S(C)(=O)=O + O=C(Nc1ccccc1)c1cc([N+](=O)[O-])ccc1Cl [GW9662] (first compound 0.08 µM, partner dose 2 µM) | 38% | 78.2% | 110% | 68.4% | 45.9% | 115% | 71.8% | 44.6% | 
2 | CCCCCCCCc1ccc(CCC(N)(CO)CO)cc1 [fingolimod] + COc1ccc2c(c1)CCC1C2CCC2(C)C(NCCCCCCN3C(=O)C=CC3=O)CCC12 [U73122] (first compound 2 µM, partner dose 0.4 µM) | 36.6% | 30.4% | 73.1% | 167% | 87.8% | 356% | 48.8% | 36.9% | 
3 | CC(=O)O[C@@]12CO[C@@H]1C[C@H](O)[C@@]1(C)C(=O)[C@H](O)C3=C(C)[C@@H](OC(=O)[C@H](O)[C@@H](NC(=O)OC(C)(C)C)c4ccccc4)C[C@@](O)([C@@H](OC(=O)c4ccccc4)[C@H]21)C3(C)C [Docetaxel] + NCC(=O)Nc1ccc(-n2nc(C(F)(F)F)cc2-c2ccc3c(ccc4ccccc43)c2)cc1 [OSU03012] (first compound 0.0001 µM, partner dose 1 µM) | 1100% | 245% | 183% | 292% | 128% | 139% | 139% | 196% | 105%
4 | NC1(c2ccc(-c3nc4ccn5c(=O)[nH]nc5c4cc3-c3ccccc3)cc2)CCC1 + CN(C)S(=O)(=O)c1ccc2c(c1)/C(=C/c1cc3c([nH]1)CCCC3)C(=O)N2 [SU6656] (first compound 0.4 µM, partner dose 0.4 µM) | 163% | 215% | 52.7% | 132% | 92.4% | 54.3% | 195% | 12.8% | 86.8%
5 | C[C@@H](N)c1ccc(C(=O)Nc2ccnc3[nH]ccc23)cc1 + CC1(C)NC(=O)N(c2ccc([N+](=O)[O-])c(C(F)(F)F)c2)C1=O [nilutamide] (first compound 0.4 µM, partner dose 1 µM) | 136% | 76.9% | 94.8% | 124% | 251% | 79.8% | 230% | 96.1% | 66.1%
6 | CCCCCCCCc1ccc(CCC(N)(CO)CO)cc1 [fingolimod] + NCC(=O)Nc1ccc(-n2nc(C(F)(F)F)cc2-c2ccc3c(ccc4ccccc43)c2)cc1 [OSU03012] (first compound 2 µM, partner dose 1 µM) | 97% | 265% | 34% | 94.4% | 62.8% | 296% | 45.2% | 30.6% | 53%
7 | NC(=O)c1ccc(N(C(N)=O)c2c(F)cccc2F)nc1-c1ccc(F)cc1F + Cn1cncc1[C@@](N)(c1ccc(Cl)cc1)c1ccc2c(c1)c(-c1cccc(Cl)c1)cc(=O)n2C [tipifarnib] (first compound 0.4 µM, partner dose 0.01 µM) | 228% | 93.8% | 103% | 58.9% | 46.7% | 102% | 368% | 51.2% | 73.9%
8 | NC1(c2ccc(-c3nc4ccn5c(=O)[nH]nc5c4cc3-c3ccccc3)cc2)CCC1 + Cc1ccc(NC(=O)c2cccc(N(C)C)c2)cc1NC(=O)c1ccc(O)cc1 [ZM336372] (first compound 0.4 µM, partner dose 2 µM) | 240% | 191% | 152% | 78.8% | 75.8% | 27.7% | 74.8% | 103% | 74.4%
9 | NC(=O)c1ccc(N(C(N)=O)c2c(F)cccc2F)nc1-c1ccc(F)cc1F + COc1cc2c(Oc3ccc4[nH]c(C)cc4c3F)ncnc2cc1OCCCN1CCCC1 [cediranib] (first compound 0.4 µM, partner dose 0.4 µM) | 59.8% | 185% | 34.4% | 79.8% | 88.9% | 99.6% | 60.5% | 60.1% | 67.4%
10 | Cn1sc(=O)n(Cc2ccccc2)c1=O + CC(C)(C)c1cnc(CSc2cnc(NC(=O)C3CCNCC3)s2)o1 [SNS-032] (first compound 0.4 µM, partner dose 0.01 µM) | 164% | 143% | 92.8% | 174% | 59.9% | 52.3% | 105% | 54.9% | 70.2%
11 | NC(=O)c1ccc(N(C(N)=O)c2c(F)cccc2F)nc1-c1ccc(F)cc1F + O=C(CCCCCCC(=O)Nc1ccccc1)NO [vorinostat] (first compound 0.4 µM, partner dose 0.08 µM) | 127% | 51.8% | 257% | 104% | 31.1% | 102% | 108% | 36% | 144%
